No constants are given. Whether binding was seen depends on the method and setting. Binding seen in cells or lysates may run through a third protein. Binding calls can cover weak binding; strength is not graded here.

The results in this text go back to PMC11696352.

This assay addresses NKRF truncation mutant M1 (C-terminal fragment). Nature of the assay: co-IP; HA-tagged NKRF WT or truncated mutants (M1-M5) overexpressed in 293T or HCT116 cells (control or GCLM knock-down, oxaliplatin 40 μM, 24 h); anti-HA immunoprecipitation.

B1: GCLM (glutamate-cysteine ligase modifier subunit), endogenous (protein, UniProt P48507 1-274)
chain: MGTDSRAAKALLARARTLHLQTGNLLNWGRLRKKCPSTHSEELHDCIQKTLNEWSSQINPDLVREFPDVLECTVSHAVEKINPDEREEMKVSAKLFIVESNSSSSTRSAVDMACSVLGVAQLDSVIIASPPIEDGVNLSLEHLQPYWEELENLVQSKKIVAIGTSDLDKTQLEQLYQWAQVKPNSNQVNLASCCVMPPDLTAFAKQFDIQLLTHNDPKELLSEASFQEALQESIPDIQAHEWVPLWLLRYSVIVKSRGIIKSKGYILQAKRRGS
For the molecule B1, the binding result is given as “binds”.
